From doi:10.1101/296376 come the findings set out here.

Amino acid sequences for entries named in this document (tags omitted). Residues count along the entry.
UniProt Q96H55, residues 824-970: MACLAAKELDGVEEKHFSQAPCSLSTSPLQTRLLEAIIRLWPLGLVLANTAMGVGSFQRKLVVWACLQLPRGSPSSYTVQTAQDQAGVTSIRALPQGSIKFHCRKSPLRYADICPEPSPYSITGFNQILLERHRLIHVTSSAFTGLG
UniProt Q8IXI2: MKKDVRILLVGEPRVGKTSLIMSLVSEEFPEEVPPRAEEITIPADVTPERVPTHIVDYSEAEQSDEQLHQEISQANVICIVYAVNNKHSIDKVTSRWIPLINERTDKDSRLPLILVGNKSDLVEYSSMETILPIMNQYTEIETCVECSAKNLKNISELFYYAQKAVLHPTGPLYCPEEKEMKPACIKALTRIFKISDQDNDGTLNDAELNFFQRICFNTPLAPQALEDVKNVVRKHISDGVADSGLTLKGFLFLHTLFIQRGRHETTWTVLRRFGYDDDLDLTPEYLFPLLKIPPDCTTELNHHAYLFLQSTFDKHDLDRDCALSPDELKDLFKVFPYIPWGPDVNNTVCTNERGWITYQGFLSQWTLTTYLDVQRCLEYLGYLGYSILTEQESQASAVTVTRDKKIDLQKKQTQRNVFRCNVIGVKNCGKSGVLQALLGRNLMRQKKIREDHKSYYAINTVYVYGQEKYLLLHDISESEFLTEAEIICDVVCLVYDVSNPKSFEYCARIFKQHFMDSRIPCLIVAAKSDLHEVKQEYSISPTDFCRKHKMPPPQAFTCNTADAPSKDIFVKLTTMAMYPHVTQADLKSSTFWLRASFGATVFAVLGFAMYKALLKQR

This experiment deals with myc-BirA*-Myo19 tail (human) (UniProt Q96H55). Briefly: proximity labelling.

Results are given in words; binding and its absence hold for the method and conditions named. Binding seen in cells or lysates may run through a third protein. Here binding means that the protein was enriched with, or labelled near, the bait; the list need not be complete.

Consider Miro-1 (from UniProt Q8IXI2 1-618), for which the binding result is “binds”.
